Results from US12486218B2, “Compounds advantageous in the treatment of central nervous system diseases and disorders” (AurimMed Pharma, Inc., priority 2008, dated 2025).

What was measured:
Assay type in all cases: in vivo
[1] = tested on: mice; experiment: Maximal Electroshock Seizure (MES) test, mice i.p.
[2] = tested on: mice; experiment: Audiogenic Seizure susceptible (AGS) test, mice i.p.
[3] = tested on: mice; experiment: Subcutaneous Metrazol Seizure threshold (s.c. MET) test, mice i.p.
[4] = tested on: rats; experiment: MES test, rats p.o.
[5] = tested on: mice; experiment: 6 Hz (minimal clonic seizure) model, mice i.p.

Row | SMILES | MES (PI), Protective Index = MID50/ED50 [1] | AGS (PI), Protective Index = MID50/ED50 [2] | s.c. MET (PI), Protective Index = MID50/ED50 [3] | MES (PI) [4] | 6 Hz (PI), Protective Index = MID50/ED50 [5]
1 | CC(CC(N)=O)c1ccc(OC(F)(F)F)cc1 (racemic) [Compound H, 3-[4-(trifluoromethoxy)-phenyl]butyramide] | 2.1 | 7.1 | (1.74) | (>9) | (2.9)
2 | CC(C)(CC(N)=O)c1ccc(Cl)cc1 [Compound A, 3-(4-Chlorophenyl)-3-methylbutyramide] | 2.59 | – | (2.75) | (8.5) | (2.27)
3 | CC(CC(N)=O)c1ccc(C(F)(F)F)cc1 (centres unmarked) [F, 3-[4-(trifluoromethyl)-phenyl]butyramide] | 2.4 | 5 | (2.4) | (>19) | (2.6)
